Assay results taken from paper PMC8210596.
These are yes or no findings as the source states them, for the method shown. Binding seen in cells or lysates may run through a third protein. Some results given as binding are weak or reduced against the parent protein; the word gives no strength.

Protein sequences, listed by entry. Tags and fused reporters are not part of them. Lines headed by an entry give the natural chain unless they say otherwise; changes in a name come on top. Chains listed by the source or under a name are the forms on record and can include a tag or linker. Residues count along the entry.
Sirtuin 5 (Sirt5), overexpressed in HEK293T cells (mouse (cDNA of the murine cell line RAW264.7)) (Q8K2C6, residues 37-310): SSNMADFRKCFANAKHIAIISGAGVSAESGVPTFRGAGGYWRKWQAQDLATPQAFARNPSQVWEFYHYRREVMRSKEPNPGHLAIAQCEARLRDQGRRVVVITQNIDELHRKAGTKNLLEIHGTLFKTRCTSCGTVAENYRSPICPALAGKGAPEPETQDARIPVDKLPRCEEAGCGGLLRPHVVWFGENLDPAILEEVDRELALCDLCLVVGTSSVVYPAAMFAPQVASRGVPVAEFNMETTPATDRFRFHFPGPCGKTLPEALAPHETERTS
Sirt5-H158Y, overexpressed in HEK293T cells (mouse (cDNA of the murine cell line RAW264.7)) (Q8K2C6, form named): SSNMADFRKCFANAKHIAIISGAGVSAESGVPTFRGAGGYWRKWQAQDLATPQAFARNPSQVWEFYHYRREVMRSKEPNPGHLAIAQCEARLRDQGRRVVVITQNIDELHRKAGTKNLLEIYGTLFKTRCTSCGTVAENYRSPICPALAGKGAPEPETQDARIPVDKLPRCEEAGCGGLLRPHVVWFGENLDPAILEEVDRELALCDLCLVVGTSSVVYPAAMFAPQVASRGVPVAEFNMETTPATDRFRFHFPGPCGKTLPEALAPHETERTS
UniProt Q62167: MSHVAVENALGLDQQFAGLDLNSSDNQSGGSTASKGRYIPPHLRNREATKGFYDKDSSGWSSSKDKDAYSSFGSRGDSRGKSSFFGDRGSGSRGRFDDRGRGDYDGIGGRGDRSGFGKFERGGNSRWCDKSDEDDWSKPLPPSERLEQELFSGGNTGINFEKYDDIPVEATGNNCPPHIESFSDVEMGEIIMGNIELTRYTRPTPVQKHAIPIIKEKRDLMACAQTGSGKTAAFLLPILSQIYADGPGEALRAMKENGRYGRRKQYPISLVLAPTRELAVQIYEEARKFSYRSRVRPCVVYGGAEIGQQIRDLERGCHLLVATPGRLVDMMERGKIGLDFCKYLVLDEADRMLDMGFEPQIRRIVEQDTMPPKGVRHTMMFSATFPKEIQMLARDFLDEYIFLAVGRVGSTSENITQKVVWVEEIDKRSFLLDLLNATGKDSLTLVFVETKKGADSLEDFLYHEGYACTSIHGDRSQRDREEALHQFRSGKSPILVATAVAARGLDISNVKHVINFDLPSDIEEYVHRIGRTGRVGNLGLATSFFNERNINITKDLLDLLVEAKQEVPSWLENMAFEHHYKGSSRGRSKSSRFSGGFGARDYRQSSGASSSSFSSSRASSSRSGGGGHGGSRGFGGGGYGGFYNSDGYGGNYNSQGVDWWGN

How the values were obtained:
[1] = target: Sirt5, endogenous in bone marrow-derived macrophages (mouse (endogenous in BMDMs)) (UniProt Q8K2C6); experiment: co-IP
[2] = target: Sirt5-H158Y, overexpressed in HEK293T cells (mouse (cDNA of the murine cell line RAW264.7)) (UniProt Q8K2C6); experiment: co-IP; HEK293T cells transfected with the expression plasmids for 24 h, lysed (Cell Signaling lysis buffer, protease inhibitors), lysate incubated with agarose affinity gel antibody for 2 h, immunoblot
[3] = target: Sirtuin 5 (Sirt5), overexpressed in HEK293T cells (mouse (cDNA of the murine cell line RAW264.7)) (UniProt Q8K2C6); experiment: as above

Row | Substance | binding [1] | binding [2] | binding [3]
1 | DDX3, endogenous in bone marrow-derived macrophages (from UniProt Q62167 1-662) | binds | – | –
2 | DDX3X (DDX3), overexpressed in HEK293T cells (from UniProt Q62167 1-662) | – | binds weakly | binds
